Assay results published in patent US10093654B2, “Therapeutically active compounds and their methods of use” (Agios Pharmaceuticals, Inc., priority 2013, dated 2018).
Some entries share one result that the patent states for a list of compounds.

Experiments:
[1] = system: IDH2 (R140Q) in TF-1 cells; test: Vimentin expression in TF-1 IDH2 (R140Q) cells; format: cell-based; conditions: 7 days of treatment; 2-HG levels below 1 mM
[2] = system: IDH2 (R140Q) in TF-1 cells; test: Histone hypermethylation, Western blot, TF-1 IDH2 (R140Q) cells; format: cell-based; conditions: intracellular 2-HG below 1 mM

With “2-Methyl-1-[(4-[6-(trifluoromethyl)pyridin-2-yl]-6-{[2-(trifluoromethyl)pyridin-4-yl]amino}-1,3,5-triazin-2-yl)amino]propan-2-ol methanesulfonate [compound 1]” the “dose at which vimentin expression is reduced to baseline levels” value [1] was greater than 200 nM and the “concentrations at which reduction in histone methylation is most apparent” value [2] was greater than 200 nM.
